Measurements reported in PubChem BioAssay AID504744 (Drosophila RNAi Screening Center, 2011).

Screen: 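Identify dsRNAs that increase or decrease phospho-dAkt after insulin treatment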 (primary screen)
Cells: Drosophila Kc167 cells
Reagents: long dsRNA against Drosophila genes, 250 ng dsRNA per well of a 384-well plate
Timing: 3 days of knock-down, then overnight serum-free starvation before stimulation
Conditions: bovine insulin at 387 nM for 10 minutes after 12 h without serum
Read-out: 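Per-well phospho-dAkt level from an in-cell fluorescent antibody stain, divided by a DNA-dye signal; log2 residuals turned into z-scores that take cell number into account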
Rule for the call: 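Hit in the insulin screen when the two-replicate mean z-score is more extreme than plus or minus 2.5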
The deposit covers about 23,000 reagents; below is an unselected part of those with a known target gene and a result. Of all reagents, 98 (0.43%) were called active. 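Only hit calls are given; the phospho-dAkt signals, z-scores and hit direction were not deposited.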 No sequences are given here.

gene	DRSC id	outcome
CG9263	DRSC03176	inactive
ckn	DRSC06149	inactive
upd2	DRSC19969	inactive
CG9281	DRSC20179	inactive
Ciz1	DRSC09675	inactive
vig	DRSC03630	inactive
vig	DRSC03631	inactive
vig	DRSC21672	inactive
CG30378	DRSC05071	inactive
Miox	DRSC10747	inactive
CG33225	DRSC03881	inactive
Art2	DRSC00627	inactive
CG13067	DRSC09950	inactive
Afti	DRSC16440	inactive
gus	DRSC04885	inactive
gus	DRSC04886	inactive
CG4998	DRSC10466	inactive
CG4998	DRSC22911	inactive
CG34396	DRSC04245	inactive
CG34396	DRSC04246	inactive
Spt	DRSC07123	inactive
Uxs	DRSC10941	inactive
Lk6	DRSC12867	inactive
Lk6	DRSC16728	inactive
wisp	DRSC19703	inactive
Atg14	DRSC14421	inactive
Atf6	DRSC04743	inactive
Atf6	DRSC04889	inactive
ham	DRSC02070	active
ham	DRSC02512	inactive
ham	DRSC02513	inactive
CG8036	DRSC16366	inactive
CG18528	DRSC15340	inactive
CG4820	DRSC15654	inactive

Next part, starting with the last 7 of the part before.
gene	DRSC id	outcome
Atf6	DRSC04889	inactive
ham	DRSC02070	active
ham	DRSC02512	inactive
ham	DRSC02513	inactive
CG8036	DRSC16366	inactive
CG18528	DRSC15340	inactive
CG4820	DRSC15654	inactive
Lfg	DRSC06853	inactive
CG32821 (retired record)	DRSC22544	inactive
Synd	DRSC15116	inactive
Atac3	DRSC08579	inactive
dind	DRSC16294	inactive
CG31797	DRSC02476	inactive
CG31797	DRSC02477	inactive
CG32638	DRSC18968	inactive
Ir94b	DRSC21439	inactive
Slu7	DRSC14729	inactive
CG14764	DRSC05072	inactive
CG14764	DRSC06498	inactive
CG14764	DRSC06844	inactive
Obp85a	DRSC14362	inactive
CG34197 (retired record)	DRSC05791	inactive
TTLL4B	DRSC00636	inactive
path	DRSC10361	inactive
CG43066	DRSC06927	inactive
Socs16D	DRSC20087	inactive
CG7295	DRSC00699	inactive
CG7423	DRSC20044	inactive
pros	DRSC12856	inactive
pros	DRSC17032	inactive
pros	DRSC22612	inactive
CG6833	DRSC10721	inactive
CG4995	DRSC02801	inactive
wda	DRSC15579	inactive
wda	DRSC22351	inactive
N	DRSC18685	inactive
Mdh2 (retired record)	DRSC16361	inactive
